PubChem BioAssay AID1159584, Peter MacCallum Cancer Centre | 2016
The deposit covers about 18,000 reagents; this is a random part of them. Not stated in the record: the amount of reagent, the time to read-out.

Test: 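Knock-downs that harm CDH1-null cells more than parental MCF10A cells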 (primary screen)
System: human MCF10A breast epithelial cells, parental and CDH1-null
Reagent: siRNA against human genes
Read-out: 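Cell viability by CellTiter-Glo ATP luminescence, each line scaled to the mean of mock wells across plates, then CDH1-null over parental ratio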
Scale: CDH1-null / parental viability ratio: higher = CDH1-null cells survive relatively better than parental; CDH1-null viability vs mock: higher = more viable CDH1-null cells; parental viability vs mock: higher = more viable parental cells

| gene symbol | CDH1-null / parental viability ratio | CDH1-null viability vs mock (fraction of mock) | parental viability vs mock (fraction of mock) |
| --- | --- | --- | --- |
| ABHD16B (GeneID 140701) | 0.92 | 0.7 | 0.76 |
| ZBTB5 (GeneID 9925) | 1.19 | 0.86 | 0.72 |
| HSF4 (GeneID 3299) | 0.94 | 0.49 | 0.52 |
| DIXDC1 (GeneID 85458) | 1.1 | 0.95 | 0.86 |
| LIN54 (GeneID 132660) | 0.93 | 0.82 | 0.88 |
| UBE3A (GeneID 7337) | 1.27 | 0.66 | 0.52 |
| SAE1 (GeneID 10055) | 0.92 | 0.94 | 1.02 |
| BCL6 (GeneID 604) | 1.07 | 0.94 | 0.88 |
| SLC20A1 (GeneID 6574) | 1.15 | 0.86 | 0.75 |
| SLC15A2 (GeneID 6565) | 1.11 | 1.03 | 0.93 |
| DLST (GeneID 1743) | 0.88 | 0.86 | 0.98 |
| PMP2 (GeneID 5375) | 1.2 | 1.16 | 0.97 |
| DEAF1 (GeneID 10522) | 0.9 | 0.43 | 0.48 |
| PHOSPHO2 (GeneID 493911) | 0.73 | 0.6 | 0.82 |
| NAALADL2 (GeneID 254827) | 1.07 | 0.92 | 0.86 |
| RIPK1 (GeneID 8737) | 1 | 0.74 | 0.74 |
| STK38 (GeneID 11329) | 1.2 | 0.84 | 0.7 |
| HM13 (GeneID 81502) | 1.49 | 0.76 | 0.51 |
| TBX15 (GeneID 6913) | 0.86 | 0.74 | 0.86 |
| ZDHHC12 (GeneID 84885) | 0.93 | 0.68 | 0.73 |
| CRP (GeneID 1401) | 0.96 | 0.73 | 0.76 |
| KDM1A (GeneID 23028) | 0.97 | 0.74 | 0.76 |
| GALC (GeneID 2581) | 0.98 | 0.86 | 0.88 |
| RCOR1 (GeneID 23186) | 1.04 | 0.73 | 0.7 |
| VASH1 (GeneID 22846) | 1.07 | 0.86 | 0.8 |
| GALM (GeneID 130589) | 1.08 | 1 | 0.93 |
| PTRH1 (GeneID 138428) | 0.93 | 0.82 | 0.88 |
| HOXB9 (GeneID 3219) | 0.98 | 0.62 | 0.63 |
| OR4N5 (GeneID 390437) | 1.22 | 0.88 | 0.72 |
| TTLL9 (GeneID 164395) | 0.8 | 0.48 | 0.6 |
| XPR1 (GeneID 9213) | 1.37 | 1.25 | 0.91 |
| PRDM11 (GeneID 56981) | 0.86 | 0.59 | 0.69 |
| PSCA (GeneID 8000) | 1.42 | 0.44 | 0.31 |
| FNDC11 (GeneID 79025) | 0.87 | 0.46 | 0.53 |
| PEX7 (GeneID 5191) | 0.97 | 1.12 | 1.15 |
| REEP1 (GeneID 65055) | 1.3 | 0.91 | 0.7 |
| CLCA1 (GeneID 1179) | 1.1 | 0.99 | 0.9 |
| NGLY1 (GeneID 55768) | 0.9 | 0.85 | 0.94 |
| H2AC17 (GeneID 8336) | 1.17 | 0.98 | 0.84 |
| CARD18 (GeneID 59082) | 1.1 | 1.06 | 0.96 |
| HSFY2 (GeneID 159119) | 1.26 | 0.78 | 0.62 |
| MFAP4 (GeneID 4239) | 1.03 | 0.9 | 0.87 |
| ZC3H11D (GeneID 160419) | 0.99 | 0.79 | 0.8 |
| DEFB105A (GeneID 245908) | 0.92 | 0.92 | 1 |
| PMS2 (GeneID 5395) | 0.88 | 0.72 | 0.82 |

9 entries already listed, arranged by “CDH1-null viability vs mock (fraction of mock)”, ascending.
| gene symbol | CDH1-null / parental viability ratio | CDH1-null viability vs mock (fraction of mock) | parental viability vs mock (fraction of mock) |
| --- | --- | --- | --- |
| ZDHHC12 (GeneID 84885) | 0.93 | 0.68 | 0.73 |
| CRP (GeneID 1401) | 0.96 | 0.73 | 0.76 |
| RCOR1 (GeneID 23186) | 1.04 | 0.73 | 0.7 |
| TBX15 (GeneID 6913) | 0.86 | 0.74 | 0.86 |
| KDM1A (GeneID 23028) | 0.97 | 0.74 | 0.76 |
| PTRH1 (GeneID 138428) | 0.93 | 0.82 | 0.88 |
| GALC (GeneID 2581) | 0.98 | 0.86 | 0.88 |
| VASH1 (GeneID 22846) | 1.07 | 0.86 | 0.8 |
| GALM (GeneID 130589) | 1.08 | 1 | 0.93 |

Additional results:
| gene symbol | CDH1-null / parental viability ratio | CDH1-null viability vs mock (fraction of mock) | parental viability vs mock (fraction of mock) |
| --- | --- | --- | --- |
| MIS18BP1 (GeneID 55320) | 0.88 | 0.72 | 0.82 |
| PMS2P3 (GeneID 5387) | 1.2 | 0.78 | 0.65 |
| CBLL2 (GeneID 158506) | 1.01 | 0.99 | 0.98 |
| CDK5 (GeneID 1020) | 0.9 | 0.73 | 0.81 |
| IQGAP1 (GeneID 8826) | 1.08 | 0.64 | 0.59 |
| SRC (GeneID 6714) | 0.92 | 0.79 | 0.86 |
| VPS52 (GeneID 6293) | 1.51 | 0.59 | 0.39 |
| DUSP23 (GeneID 54935) | 1.32 | 0.79 | 0.6 |
| HIPK1 (GeneID 204851) | 0.97 | 0.97 | 1 |
| CHPT1 (GeneID 56994) | 0.83 | 0.68 | 0.82 |
| STK33 (GeneID 65975) | 0.9 | 0.76 | 0.84 |
| BICRA (GeneID 29998) | 1.03 | 0.9 | 0.87 |
| SLC5A4 (GeneID 6527) | 0.93 | 1.04 | 1.12 |
| PRAMEF6 (GeneID 440561) | 1.08 | 0.95 | 0.88 |
| SYNGR3 (GeneID 9143) | 1.23 | 1 | 0.81 |
| MED12L (GeneID 116931) | 0.99 | 0.9 | 0.91 |
| ATP6V0A1 (GeneID 535) | 0.98 | 1.07 | 1.09 |
| HAPLN1 (GeneID 1404) | 1.61 | 1 | 0.62 |
| KLRB1 (GeneID 3820) | 1.12 | 0.94 | 0.84 |
| TEPSIN (GeneID 146705) | 1.13 | 0.62 | 0.55 |
| TIMMDC1 (GeneID 51300) | 1.22 | 0.96 | 0.79 |
| RNF220 (GeneID 55182) | 1.01 | 0.71 | 0.7 |
| ANKRD1 (GeneID 27063) | 0.77 | 0.73 | 0.95 |
| VPS25 (GeneID 84313) | 0.81 | 0.78 | 0.96 |
| WNT5A (GeneID 7474) | 1.39 | 1 | 0.72 |
| GJC3 (GeneID 349149) | 0.84 | 0.36 | 0.43 |
| MAGEA5P (GeneID 4104) | 1.19 | 0.31 | 0.26 |
| IKZF3 (GeneID 22806) | 1.01 | 0.88 | 0.87 |
| ADM (GeneID 133) | 1.26 | 0.58 | 0.46 |
| RPL15 (GeneID 6138) | 1.12 | 0.38 | 0.34 |
| ZNF28 (GeneID 7576) | 1.17 | 0.82 | 0.7 |
| RNASE9 (GeneID 390443) | 1 | 1 | 1 |
| LSG1 (GeneID 55341) | 0.99 | 0.76 | 0.77 |
| GPR173 (GeneID 54328) | 0.86 | 0.78 | 0.91 |
| USP17L2 (GeneID 377630) | 1.19 | 0.93 | 0.78 |
| ODR4 (GeneID 54953) | 0.79 | 0.65 | 0.82 |
| CENPH (GeneID 64946) | 0.75 | 0.43 | 0.57 |
| OR7A17 (GeneID 26333) | 0.96 | 0.7 | 0.73 |
| ZRSR2 (GeneID 8233) | 0.95 | 0.88 | 0.93 |
| UTP4 (GeneID 84916) | 1.41 | 0.9 | 0.64 |
| SLIT3 (GeneID 6586) | 1.06 | 0.86 | 0.81 |
| SLC32A1 (GeneID 140679) | 0.8 | 0.72 | 0.9 |
